Results are given in words; binding and its absence hold for the method and conditions named.

The target of this assay is Golgi phosphoprotein 3 (GOLPH3), cytosolic pool (human (endogenous in MCF 10A, MCF7, MDA-MB-231)), Q9H4A6. The experiment in a line: SEC; cytosolic fractions of MCF 10A, MCF7 and MDA-MB-231 cells on a Superose 6 10/300 GL column in 50 mM Tris HCl, 0.5 M NaCl, pH 8.0; fractions read by SDS-PAGE and immunoblot with antibody to GOLPH3; column calibrated with proteins of known Stokes radii. The conditions noted are these: remark: other sources report otherwise. On the technique in general: In gel filtration, larger molecules generally elute earlier.

B1: Golgi phosphoprotein 3 (GOLPH3), cytosolic pool, Q9H4A6 1-298 (protein)
chain: MTSLTQRSSGLVQRRTEASRNAADKERAAGGGAGSSEDDAQSRRDEQDDDDKGDSKETRLTLMEEVLLLGLKDREGYTSFWNDCISSGLRGCMLIELALRGRLQLEACGMRRKSLLTRKVICKSDAPTGDVLLDEALKHVKETQPPETVQNWIELLSGETWNPLKLHYQLRNVRERLAKNLVEKGVLTTEKQNFLLFDMTTHPLTNNNIKQRLIKKVQEAVLDKWVNDPHRMDRRLLALIYLAHASDVLENAFAPLLDEQYDLATKRVRQLLDLDPEVECLKANTNEVLWAVVAAFTK
Regarding B1, the binding result is given as “no binding”.

Source of the values: PMC4849736.
